No constants are given. Whether binding was seen depends on the method and setting. For part of these data: A result given as binding can be weak or reduced; the word gives no strength.

In assay [1] the target is Endogenous canine PD-L1 on K9TCC canine bladder cancer cells (K9TCC / K9TCC^nRFP) (canine). The experiment in a line: flow cytometry on K9TCC^nRFP cells stimulated with 50 ng/ml canine IFNγ for 12 hours.
Assay [2] deals with cPD-L2 protein (canine PD-L2) (canine). Nature of the assay: ELISA, bound Ab as OD450. Background: In an ELISA, binding on a coated surface is turned into a signal by an enzyme label.
Assay [3] concerns the target Endogenous canine PD-L1 on K9TCC canine bladder cancer cells (K9TCC / K9TCC^nRFP) (canine). Nature of the assay: flow cytometry on K9TCC cells stimulated with 50 ng/ml canine IFNγ for 12 hours. Background: In flow cytometry, cells or beads pass a laser one at a time.

B1: cPD-L1 12C10E4 chimeric antibody (mouse variable domains, canine IgG2 heavy and canine kappa light constant domains) (antibody, V domains shown)
VH: QVQLKQSGPGLVQPSQSLSITCTISGFSLTSFGVHWVRQSPGKGLEWLGVIWSGGSTDYNAAFTSRLSINKDNSKSQVFFKMNSLQADDTAIYYCARGGGPDWYFDVWGTGTTVTVSS
VL: DIVLTQSPASLAVSLGQRATISCRASESVEYYGTSLMQWYQQKPGQPPKLLIFAASNVKSGVPARFSGSGSGTDFSLNIHPVEEDDIAMYFCQQSGKVPHTFGGGTKLEIKR
Regarding B1, the binding result in assay [1] is recorded as “binds”; in assay [2], “no binding”; in assay [3], “binds”.

These data come from patent US20260193355A1.
